Results are given in words; binding and its absence hold for the method and conditions named. In cells and extracts the contact can be indirect.
Target: SIDT2-mut-GFP (SIDT2 with tyrosine 650 replaced by alanine, CRAC-2 motif disrupted) (human) (UniProt Q8NBJ9)
Assay: co-IP; HEK293 cell extracts of co-transfected cells; SIDT2-GFP immunoprecipitated with an anti-GFP antibody; SIDT2 and ApoA1 detected by Western blot

Chains of the proteins cited; added tags and fusions are not shown. Lines headed by an entry give the natural chain unless they say otherwise; changes in a name come on top. Residues count along the entry.
UniProt Q8NBJ9: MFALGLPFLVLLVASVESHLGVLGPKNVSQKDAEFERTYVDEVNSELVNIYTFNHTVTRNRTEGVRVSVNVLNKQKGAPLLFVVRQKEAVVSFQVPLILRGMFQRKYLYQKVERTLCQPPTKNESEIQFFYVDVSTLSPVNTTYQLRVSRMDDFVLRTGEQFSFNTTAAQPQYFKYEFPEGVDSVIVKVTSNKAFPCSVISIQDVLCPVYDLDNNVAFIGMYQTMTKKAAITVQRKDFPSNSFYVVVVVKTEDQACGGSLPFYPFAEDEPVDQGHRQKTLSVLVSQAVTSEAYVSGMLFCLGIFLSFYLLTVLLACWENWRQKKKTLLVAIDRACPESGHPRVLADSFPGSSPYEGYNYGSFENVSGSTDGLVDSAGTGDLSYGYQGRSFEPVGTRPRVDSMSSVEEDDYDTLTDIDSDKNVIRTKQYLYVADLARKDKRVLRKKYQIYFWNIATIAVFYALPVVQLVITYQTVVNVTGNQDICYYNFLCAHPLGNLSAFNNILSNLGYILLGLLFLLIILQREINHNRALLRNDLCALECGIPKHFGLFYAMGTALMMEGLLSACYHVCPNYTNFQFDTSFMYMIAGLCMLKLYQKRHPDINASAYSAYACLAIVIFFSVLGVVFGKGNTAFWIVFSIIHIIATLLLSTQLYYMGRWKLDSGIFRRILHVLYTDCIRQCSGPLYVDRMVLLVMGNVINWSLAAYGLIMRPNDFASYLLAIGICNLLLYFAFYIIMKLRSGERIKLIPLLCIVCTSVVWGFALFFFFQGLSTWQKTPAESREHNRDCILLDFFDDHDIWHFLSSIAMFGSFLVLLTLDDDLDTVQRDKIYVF
UniProt P02647, residues 19-267: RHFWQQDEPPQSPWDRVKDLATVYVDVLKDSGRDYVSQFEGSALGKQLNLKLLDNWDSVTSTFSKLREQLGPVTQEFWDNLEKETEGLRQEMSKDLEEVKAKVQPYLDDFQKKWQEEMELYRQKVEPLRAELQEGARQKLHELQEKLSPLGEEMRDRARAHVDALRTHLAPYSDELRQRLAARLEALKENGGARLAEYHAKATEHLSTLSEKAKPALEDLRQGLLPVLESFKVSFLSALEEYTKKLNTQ

## ApoA1 (expressed in HEK293 cells for co-immunoprecipitation) (from UniProt P02647 19-267)
  binding: no binding
